{"source": "PubChem BioAssay AID1259308 (NCATS, 2017)", "test": "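Candidate targets for better recombinant protein yield in mammalian cells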 (primary screen)", "cell system": "human HEK293 embryonic kidney cells stably expressing firefly luciferase (HEK-CMV-Luc2-Hygro)", "reagent": "single siRNA against human genes, 0.8 pmol siRNA per well", "duration": "72 h", "measurement": "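Luciferase light (ONE-Glo) measured on one replicate plate set and viability (CellTiter-Glo) on the other, scaled to a negative control siRNA, with robust z-scores and luciferase per cell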", "reading the numbers": "total luciferase, z-score and total luciferase, % of control: higher = more reporter protein produced", "rule for the call": "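Active when the median/MAD z-score for overall luciferase is greater than 3; a gene was taken forward for validation with new siRNAs if at least two of its three siRNAs passed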", "meaning of the calls": "active = raised luciferase; inactive = no rise", "note": "Here is an unselected part of about 59,000 reagents tested. Over the whole deposit, about 1,510 (2.6%) were called active. 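Calls use total luciferase alone and ignore viability, so some active siRNAs may act by altering cell number.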 Entries without a mark were called inactive. The numbers tell different reagents against one gene apart. Not all columns of the deposit are shown."}
{"Target gene": "FETUB (fetuin B)", "reagent no.": 1, "total luciferase, z-score": -0.105, "total luciferase, % of control": 79.8}
{"Target gene": "FETUB (fetuin B)", "reagent no.": 2, "total luciferase, z-score": 0.103, "total luciferase, % of control": 83.9}
{"Target gene": "FETUB (fetuin B)", "reagent no.": 3, "total luciferase, z-score": -1.77, "total luciferase, % of control": 46.6}
{"Target gene": "TRAP1 (TNF receptor associated protein 1)", "reagent no.": 1, "total luciferase, z-score": 1.65, "total luciferase, % of control": 115}
{"Target gene": "TRAP1 (TNF receptor associated protein 1)", "reagent no.": 2, "total luciferase, z-score": 0.58, "total luciferase, % of control": 93.4}
{"Target gene": "TRAP1 (TNF receptor associated protein 1)", "reagent no.": 3, "total luciferase, z-score": -0.797, "total luciferase, % of control": 66}

Copied from the entries so far (2 entries):
{"Target gene": "TRAP1 (TNF receptor associated protein 1)", "reagent no.": 2, "total luciferase, z-score": 0.58, "total luciferase, % of control": 93.4}
{"Target gene": "TRAP1 (TNF receptor associated protein 1)", "reagent no.": 3, "total luciferase, z-score": -0.797, "total luciferase, % of control": 66}

Additional entries follow:
{"Target gene": "SIRT4 (sirtuin 4)", "reagent no.": 1, "total luciferase, z-score": -0.272, "total luciferase, % of control": 76.5}
{"Target gene": "SIRT4 (sirtuin 4)", "reagent no.": 2, "total luciferase, z-score": 2.63, "total luciferase, % of control": 134}
{"Target gene": "SIRT4 (sirtuin 4)", "reagent no.": 3, "total luciferase, z-score": 0.366, "total luciferase, % of control": 89.2}
{"Target gene": "GBP3 (guanylate binding protein 3)", "reagent no.": 1, "total luciferase, z-score": -1.48, "total luciferase, % of control": 52.4}
{"Target gene": "GBP3 (guanylate binding protein 3)", "reagent no.": 2, "total luciferase, z-score": 2.34, "total luciferase, % of control": 128}
{"Target gene": "GBP3 (guanylate binding protein 3)", "reagent no.": 3, "total luciferase, z-score": 0.677, "total luciferase, % of control": 95.3}
